PubChem BioAssay AID504774 | Drosophila RNAi Screening Center | 2011

Screen: 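Fly genes whose loss alters survival after alkylation damage to DNA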 (primary screen)
Cell system: Drosophila Kc167 cells
Reagents: long dsRNA against Drosophila genes, about 0.25 µg dsRNA per well
Time to read-out: about 6 days: 3 days knock-down, then 3 days with or without MMS
Conditions: methyl methanesulphonate 0.004% (w/v) for 3 days after knock-down
Detection: 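ATP-dependent luminescence as a measure of live cells in MMS-exposed wells, quantile normalised within each plate, with replicate values also given as a mean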
Direction: mean viability with MMS: higher = more surviving cells after MMS
The deposit covers about 23,000 reagents; below is an unselected part of those with a known target gene and a result. 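Values are quantile-normalised luminescence on an arbitrary scale; higher means more cells surviving MMS.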 Names joined by + are all predicted targets of the reagent. Not all columns of the deposit are shown.

Sbf (SET domain binding factor) [DRSC16852]
- mean viability with MMS: 3.88e6

CG33177 [DRSC19949]
- mean viability with MMS: 3.59e6

kek2 (kekkon 2) [DRSC03552]
- mean viability with MMS: 3.45e6

CG7794 [DRSC16313]
- mean viability with MMS: 3.56e6

Src64B (Src oncogene at 64B) [DRSC08700]
- mean viability with MMS: 3.65e6

Acyp (Acylphosphatase) [DRSC01861]
- mean viability with MMS: 3.54e6

Rpp20 + CG33932 [DRSC19467]
- mean viability with MMS: 3.62e6

natalisin [DRSC14966]
- mean viability with MMS: 3.26e6

natalisin [DRSC14967]
- mean viability with MMS: 3.52e6

kel (kelch) [DRSC03554]
- mean viability with MMS: 3.50e6

Rab1 [DRSC16808]
- mean viability with MMS: 3.53e6

Pfdn4 (Prefoldin 4) [DRSC09761]
- mean viability with MMS: 3.47e6

Rab14 [DRSC03403]
- mean viability with MMS: 3.47e6

CG6847 [DRSC19213]
- mean viability with MMS: 3.55e6

CG6847 [DRSC20009]
- mean viability with MMS: 3.58e6

Or67a (Odorant receptor 67a) [DRSC11240]
- mean viability with MMS: 3.80e6

Alp8 (Alkaline phosphatase 8) [DRSC04353]
- mean viability with MMS: 3.42e6

CG14269 [DRSC17912]
- mean viability with MMS: 3.41e6

Mcm5 (Minichromosome maintenance 5) [DRSC16735]
- mean viability with MMS: 3.52e6

Tfb4 (Transcription factor B4) [DRSC00675]
- mean viability with MMS: 3.32e6

nod (no distributive disjunction) [DRSC18900]
- mean viability with MMS: 3.52e6

nod (no distributive disjunction) [DRSC20356]
- mean viability with MMS: 3.60e6

Lim1 (LIM homeobox 1) [DRSC17752]
- mean viability with MMS: 3.73e6

Lim1 (LIM homeobox 1) [DRSC18677]
- mean viability with MMS: 3.50e6

7 consecutive reagents already listed, for reference:
Rpp20 + CG33932 [DRSC19467]
- mean viability with MMS: 3.62e6

natalisin [DRSC14966]
- mean viability with MMS: 3.26e6

natalisin [DRSC14967]
- mean viability with MMS: 3.52e6

kel (kelch) [DRSC03554]
- mean viability with MMS: 3.50e6

Rab1 [DRSC16808]
- mean viability with MMS: 3.53e6

Pfdn4 (Prefoldin 4) [DRSC09761]
- mean viability with MMS: 3.47e6

Rab14 [DRSC03403]
- mean viability with MMS: 3.47e6

Next results follow:
sw + Sdic4 + Sdic3 + 2 more [DRSC20696]
- mean viability with MMS: 3.49e6

CG31808 [DRSC22962]
- mean viability with MMS: 3.60e6

Rala (Ras-like protein A) [DRSC18703]
- mean viability with MMS: 3.66e6

CG15803 [DRSC15121]
- mean viability with MMS: 3.57e6

CG14402 [DRSC02386]
- mean viability with MMS: 3.76e6

CG16704 [DRSC00475]
- mean viability with MMS: 3.71e6

Rab9Db + Rab9D + Rab9Fa + 1 more [DRSC17662]
- mean viability with MMS: 3.47e6

QIL1 [DRSC10888]
- mean viability with MMS: 3.47e6

OS9 + Hf [DRSC03392]
- mean viability with MMS: 3.51e6

Arp2 (Actin-related protein 2) [DRSC19332]
- mean viability with MMS: 3.51e6

Trf2 (TATA box binding protein-related factor 2) [DRSC18727]
- mean viability with MMS: 3.71e6

Sgt1 (suppressor-of-G2-allele-of-skp1) [DRSC16519]
- mean viability with MMS: 3.46e6

CHKov2 (CHK domain ov2) [DRSC14262]
- mean viability with MMS: 3.47e6

CG3939 [DRSC18498]
- mean viability with MMS: 3.45e6

RhoGAP93B (Rho GTPase activating protein at 93B) [DRSC15488]
- mean viability with MMS: 3.46e6

CG13924 [DRSC08393]
- mean viability with MMS: 3.49e6

Art4 (Arginine methyltransferase 4) [DRSC15779]
- mean viability with MMS: 3.41e6

RpS7 (Ribosomal protein S7) [DRSC15394]
- mean viability with MMS: 3.00e6

Rtnl1 (Reticulon-like1) [DRSC00851]
- mean viability with MMS: 3.36e6

Rtnl1 (Reticulon-like1) [DRSC02684]
- mean viability with MMS: 3.81e6

Rtnl1 (Reticulon-like1) [DRSC03122]
- mean viability with MMS: 3.97e6

Rtnl1 (Reticulon-like1) [DRSC21698]
- mean viability with MMS: 3.44e6
